Assay results: paper PMC7819943, “Rice protein-binding microarrays: a tool to detect cis-acting elements near promoter regions in rice”
The list shows a part of the results.

By UniProt entry, the sequences of proteins in these tests, tags left out.
UniProt Q0JBA9, entry or part of it: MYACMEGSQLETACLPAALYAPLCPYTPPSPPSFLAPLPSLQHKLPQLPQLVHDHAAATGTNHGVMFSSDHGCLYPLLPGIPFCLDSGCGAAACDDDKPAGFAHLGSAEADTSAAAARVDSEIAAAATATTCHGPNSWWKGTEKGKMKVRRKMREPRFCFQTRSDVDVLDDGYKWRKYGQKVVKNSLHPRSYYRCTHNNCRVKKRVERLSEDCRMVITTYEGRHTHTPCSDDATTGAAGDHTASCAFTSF

target: OsWRKY34 (Oryza sativa, UniProt Q0JBA9 1-250); test: protein-binding microarray (RPBM); PBS, 2% BSA, 51.3 ng/ul salmon testes DNA, 50 uM zinc acetate, 200 nM TF, 25 C, 1 h; high values mean tight binding; conditions: protein: recombinant; tags: N-terminal polyhistidine and DsRed monomer fusion (pET32a); label: CyDye5-dUTP incorporated in the synthesized complementary strand; 3' TTTTT single-stranded linker to array surface; dsDNA, one strand shown
Summary of the method: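 Transcription factors were made in E. coli BL21-CodonPlus as N-terminal fusions to a polyhistidine tag and DsRed, then purified on Ni–NTA. After primer extension with Cy5-dUTP and blocking with 2% BSA, a custom Agilent array was exposed for 1 h at 25 °C to 200 nM protein in PBS, 2% BSA, salmon testes DNA and 50 µM zinc acetate. Washed arrays were scanned on an Axon 4000B, and the binding signal is per-feature fluorescence intensity in arbitrary units.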

Row | Sequence | binding signal
1 | AGAGAGTAGGGGTAGGTAATTTCATTATTTTTTTTGAAACCGGAGTCACCTAGTGCAG | 8630 fluorescence intensity (a.u.)
2 | CCCTTTTTTAAATATATGTTGCTGTTGTTTTTTTAACAAACGGAGTCACCTAGTGCAG | 8880 fluorescence intensity (a.u.)
3 | TTACCGTTACACCAACTTTGAATGCCTCCATCTGACGACGCGGAGTCACCTAGTGCAG | 10100 fluorescence intensity (a.u.)
4 | CAAGCGTTTAAGGCTCTCGCCGAGCAGTCCATCTCCCACTCGGAGTCACCTAGTGCAG | 8150 fluorescence intensity (a.u.)
5 | CCCCGACCCGCCGGCGCCGCCCACTCCCGTCTCGTCTCAACGGAGTCACCTAGTGCAG | 14600 fluorescence intensity (a.u.)
6 | GGGGTTGTGGAATGGGGAATGCGACCTACCTTGCGCTTCCCGGAGTCACCTAGTGCAG | 12600 fluorescence intensity (a.u.)
7 | GCGTGGTGTGGTTGTATTTTCTTTTTCCTGACTGCAGTCTCGGAGTCACCTAGTGCAG | 12200 fluorescence intensity (a.u.)
8 | GCGGCACGGCTTCCACATTTTTCGGCCAAATATTATATCCCGGAGTCACCTAGTGCAG | 9380 fluorescence intensity (a.u.)
9 | GGGTTGGCTTGGTTTGGGGAGCAAGATGATACGGGAGGAACGGAGTCACCTAGTGCAG | 13900 fluorescence intensity (a.u.)
10 | ACGCAAACGCTTCCCACCCTCCACTCCTTCGCGTCGATCTCGGAGTCACCTAGTGCAG | 8940 fluorescence intensity (a.u.)
11 | GTCCCTTCCCGCGCTTTCCCCACCGCTCGAATACAGCACACGGAGTCACCTAGTGCAG | 8150 fluorescence intensity (a.u.)
12 | TCTCTGAACATCATGCAAAATTCCTGTGATCCTCTGTACACGGAGTCACCTAGTGCAG | 8070 fluorescence intensity (a.u.)
13 | CCGCTGCTTCTTTCCCCGCTAGTCTTCGCCAGCTAGCGTCCGGAGTCACCTAGTGCAG | 10400 fluorescence intensity (a.u.)
14 | ACAATAATGCCAATATCTTTAACGTTCACTTCGTCACCAACGGAGTCACCTAGTGCAG | 8300 fluorescence intensity (a.u.)
15 | GCTTATGAACCCCGTGGGCCATGGCCCTTATATATTCCTACGGAGTCACCTAGTGCAG | 8860 fluorescence intensity (a.u.)
16 | GGGTGTTTGAATTCTCCACTTTCTATTTCTGTGTTCCGAACGGAGTCACCTAGTGCAG | 12400 fluorescence intensity (a.u.)
17 | TTTTATAGTTTAGCTACCTCTTCTCCATTTTCTTTAATTTCGGAGTCACCTAGTGCAG | 9920 fluorescence intensity (a.u.)
18 | GCCACCATTCCCATCTAGCGGCATGCATCTCCCGCTCCTCCGGAGTCACCTAGTGCAG | 8220 fluorescence intensity (a.u.)
19 | GCCGTTGCCATAGTTCCCGTTCATCCCCTGATCGTCATCACGGAGTCACCTAGTGCAG | 9680 fluorescence intensity (a.u.)
20 | TATTAAGTTCCTGTACTGGAACGCACCCACTTATCAATTTCGGAGTCACCTAGTGCAG | 8210 fluorescence intensity (a.u.)
21 | GAGGAGAGTGGTGGAGGAAGAATAGAAATGACACTTACATCGGAGTCACCTAGTGCAG | 8180 fluorescence intensity (a.u.)

An excerpt of these results, with tabs:
Row	Sequence	binding signal
7	GCGTGGTGTGGTTGTATTTTCTTTTTCCTGACTGCAGTCTCGGAGTCACCTAGTGCAG	12200 fluorescence intensity (a.u.)
19	GCCGTTGCCATAGTTCCCGTTCATCCCCTGATCGTCATCACGGAGTCACCTAGTGCAG	9680 fluorescence intensity (a.u.)

(list continues)

Row | Sequence | binding signal
22 | TCTTTTTGTTTGACTTTTTTAAAACCACAGGTCACCCTTACGGAGTCACCTAGTGCAG | 14800 fluorescence intensity (a.u.)
23 | GCCCATCTCTACGCCAATCCAACGTGCACGCCACCATGTGCGGAGTCACCTAGTGCAG | 8870 fluorescence intensity (a.u.)
24 | CTGGGATCTCCTCCTCTTCTACTACTCTTCTTCCATCGCCCGGAGTCACCTAGTGCAG | 8310 fluorescence intensity (a.u.)
25 | TGACTAACCTACATTGCTTGCTTCTGCTCCTCACTGCGACCGGAGTCACCTAGTGCAG | 8850 fluorescence intensity (a.u.)
26 | CGCGTGTCTCGCTCCGTCCTCGCGCGCTCGACCCCTCCGCCGGAGTCACCTAGTGCAG | 8660 fluorescence intensity (a.u.)
27 | TGGCCATCACTCATCAGTCATCACCAACGGCGCCACACATCGGAGTCACCTAGTGCAG | 9100 fluorescence intensity (a.u.)
28 | TTCTTACTGGATGGTGTACACTACTTACCCTTTTTAATGCCGGAGTCACCTAGTGCAG | 8650 fluorescence intensity (a.u.)
29 | TCTAGTCTCGATTGCTTTTCTGCTGCTTCGCCCTTGCTGCCGGAGTCACCTAGTGCAG | 8410 fluorescence intensity (a.u.)
30 | AACCTCTTACTTAATTGTATCGTTTCGGCTTTAATATTTGCGGAGTCACCTAGTGCAG | 10200 fluorescence intensity (a.u.)
31 | ACGTCCTACTTGAAAGTGTGATGCCTAATAGTGTTTAGACCGGAGTCACCTAGTGCAG | 8530 fluorescence intensity (a.u.)
32 | CCATGCACTCCGTAAATTTTTTTCTGTTAACGCGAGGCCACGGAGTCACCTAGTGCAG | 8930 fluorescence intensity (a.u.)
33 | GCATGTTCCTCAAATGCAGCATCTGGGTCACTATAATGTTCGGAGTCACCTAGTGCAG | 9310 fluorescence intensity (a.u.)
34 | GTGGTTTGTTCGAATTCTGGATTCTTCGGTTCTTGCTAATCGGAGTCACCTAGTGCAG | 12100 fluorescence intensity (a.u.)
35 | ACCATCCGACTGGCTAAATTCCCAACCTCATTGACCAAAGCGGAGTCACCTAGTGCAG | 8270 fluorescence intensity (a.u.)
36 | ATTTAGATATTTTTTCTATGGATCCTTTTGTGTTGACATACGGAGTCACCTAGTGCAG | 8400 fluorescence intensity (a.u.)
37 | ATGTTCTGCTGCCAGTTTATTTTATGTAATTTCTTTTTGCCGGAGTCACCTAGTGCAG | 9300 fluorescence intensity (a.u.)
38 | GGGGTGGGAGGGGAGGCAAGGTAGGCAACGCCAAGAACGGCGGAGTCACCTAGTGCAG | 11400 fluorescence intensity (a.u.)
39 | ACCCGATTCCCACACTAGCCCACAGCGTATAATCACATTTCGGAGTCACCTAGTGCAG | 10100 fluorescence intensity (a.u.)
40 | ATTGTATGCTATTTTTTGTTTTGTCATGAGTTAACTTTATCGGAGTCACCTAGTGCAG | 10700 fluorescence intensity (a.u.)
41 | GGGCGCCGGTATGCTTCTTCCATTCCACCTATGTGTTTCTCGGAGTCACCTAGTGCAG | 9490 fluorescence intensity (a.u.)
42 | TTAACTTCATGACCACTCCGCTTACTAAGAATGCTTACTTCGGAGTCACCTAGTGCAG | 8040 fluorescence intensity (a.u.)
